Test results published in PubChem BioAssay AID1671190 (National Center for Advancing Translational Sciences (NCATS), 2021).
The whole screen tested about 580,000 compounds, of which about 6,100 (1.1%) were called active. The shares of active, inactive and inconclusive entries below differ from those in the screen. Calls follow the shape of the dose curve; as a rule, active = well fitted inhibition curve with a large enough effect; inconclusive = small, poorly fitted or top-dose-only effect, or another doubt; inactive = no such curve, though single readings can be large or run the other way. Where the call is inconclusive, the potency comes from a doubtful curve fit.

The chains behind the UniProt entries cited, without tags or fusion partners. Where a name states a change or a piece, a line headed by the entry shows the natural chain unless it says otherwise.
UniProt P18054: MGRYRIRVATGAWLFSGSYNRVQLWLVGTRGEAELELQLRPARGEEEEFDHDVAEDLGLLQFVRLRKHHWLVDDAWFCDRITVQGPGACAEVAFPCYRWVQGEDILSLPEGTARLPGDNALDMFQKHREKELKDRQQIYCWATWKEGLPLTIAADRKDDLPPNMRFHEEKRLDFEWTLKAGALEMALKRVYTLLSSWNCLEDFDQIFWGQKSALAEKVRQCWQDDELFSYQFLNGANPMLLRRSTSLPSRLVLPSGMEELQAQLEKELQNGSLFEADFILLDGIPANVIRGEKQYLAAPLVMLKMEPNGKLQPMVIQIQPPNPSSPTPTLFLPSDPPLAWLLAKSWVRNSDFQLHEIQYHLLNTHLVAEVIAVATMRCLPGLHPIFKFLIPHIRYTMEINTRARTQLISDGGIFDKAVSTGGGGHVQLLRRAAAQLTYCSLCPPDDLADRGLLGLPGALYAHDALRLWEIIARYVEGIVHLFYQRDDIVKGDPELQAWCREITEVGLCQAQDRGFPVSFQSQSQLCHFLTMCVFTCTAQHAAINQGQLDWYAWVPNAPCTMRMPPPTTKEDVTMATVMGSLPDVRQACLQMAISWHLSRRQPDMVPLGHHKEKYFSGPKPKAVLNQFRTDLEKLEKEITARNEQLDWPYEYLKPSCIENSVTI

target: Polyunsaturated fatty acid lipoxygenase ALOX12 (Homo sapiens) (UniProt P18054); assay: Primary qHTS assay for inhibitors of human arachidonate 12S-lipoxygenase (ALOX12): Round 2; conditions: purified 12hLO, xylenol orange hydroperoxide absorbance; activity change, negative = inhibition: at 108 µM (top of the series) unless noted
How it was run: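 Purified human 12hLO at 150 nM in 25 mM Hepes, 0.01% Triton X-100, pH 7.0, preincubated 15 min at room temperature with compound. Reaction started with 40 uM arachidonic acid, 30 min at room temperature. Hydroperoxide measured by Fe-xylenol orange, 573/405 nm absorbance ratio.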
% is scaled to controls: 0 for no effect and ±100 for the full control effect; potency is read from the fitted curve at half-maximal effect.

Structure (SMILES)	Potency	activity change, negative = inhibition
Oc1ccccc1C=NNC(=S)Nc1ccc(F)cc1	inconclusive: 15.8 µM [inhibitor, partial curve, poor fit]	–
Cc1onc(-c2ccccc2)c1C(=O)O/N=C(\N)c1ccc([N+](=O)[O-])o1	–	inactive: 65.7%
O=C(/C=C/c1cccs1)OC1CCCCC1=O (stereo unspecified)	inconclusive: 56.2 µM [inhibitor, partial curve, poor fit]	–
CC(=O)c1ccc(NC(=O)c2cc3sccc3n2Cc2ccc(Cl)cc2)cc1	–	inactive: 0%
Cc1cc(C(=O)NC(C)c2ccccc2Br)c(C)[nH]1 (stereo unspecified)	inconclusive: 44.7 µM [inhibitor, partial curve, poor fit]	–
CCC(=O)NC(=S)Nc1ccc(NC(=O)c2cc3ccccc3o2)c(OC)c1	–	inactive: -7%
Cc1nc2cccnc2n1CC1CCCN(S(=O)(=O)c2ccccc2)C1 (stereo unspecified)	–	inactive: 50.7%
CC(/C=C/c1ccccc1)=N\Nc1nc(-c2ccccc2)cs1	inconclusive: 31.6 µM [inhibitor, partial curve, poor fit]	–
O=C(Cn1cccc1-c1nc(-c2ccccc2)no1)NC1CCCCC1	inconclusive: 14.1 µM [inhibitor, partial curve]	–
COC(=O)C1=C(N)Oc2cc(C)n(Cc3ccccc3)c(=O)c2C1c1ccccc1 (stereo unspecified)	inconclusive: 112 µM [inhibitor, partial curve, poor fit]	–
CN(C)C(=O)CCN1CCOCC1	–	inactive: 12.5%
CC(C)(C)c1ccc(/C=N/NC(=O)C[n+]2ccccc2)cc1	–	inactive: 12.9%
CC(=O)N1CC2(CCN(Cc3c[nH]c4ccccc34)CC2)Cc2ccccc21	inconclusive: 70.8 µM [inhibitor, partial curve, poor fit]	–
Cc1cccc(NC(NC(=O)c2cccc(C)c2)C(Cl)(Cl)Cl)c1 (stereo unspecified)	–	inactive: 4.35%
CCOP(=O)(OCC)c1nc(-c2ccc(Cl)cc2Cl)oc1N1CCCCC1	–	inactive: -19.3%
COc1ccc(CNC(=O)c2cc3cccc4c3n2CC(C)S4)cc1OC (stereo unspecified)	inconclusive: 141 µM [inhibitor, partial curve, poor fit]	–
Cc1ccc2c(c1)N(S(=O)(=O)c1ccc(CN3C(=O)c4cccnc4C3=O)s1)CCO2	inconclusive: 31.6 µM [inhibitor, partial curve, poor fit]	–
COc1ccc(Cl)cc1NC(=O)CCN1CCN(C)CC1	inconclusive: 50.1 µM [inhibitor, partial curve, poor fit]	–
COc1cccc(CNC(=O)COC(=O)c2cc(Br)c(Br)s2)c1	–	inactive: 401%
CCc1ccc(N2CC(C(=O)OCC(=O)NC3CCS(=O)(=O)C3)CC2=O)cc1 (stereo unspecified)	inconclusive: 158 µM [inhibitor, single point]	–
Cc1cc(N2C(=O)C(O)=C(C(=O)c3ccco3)C2c2ccc(Cl)cc2)no1 (stereo unspecified)	inconclusive: 44.7 µM [inhibitor, partial curve, poor fit]	–

At a glance, part of the list above.
Structure (SMILES)	Potency	activity change, negative = inhibition
O=C(/C=C/c1cccs1)OC1CCCCC1=O (stereo unspecified)	inconclusive: 56.2 µM [inhibitor, partial curve, poor fit]	–
CC(=O)c1ccc(NC(=O)c2cc3sccc3n2Cc2ccc(Cl)cc2)cc1	–	inactive: 0%

Remaining list, next part

Structure (SMILES)	Potency	activity change, negative = inhibition
CC(OC(=O)Cn1[nH]c(=O)c2ccccc2c1=O)C(=O)Nc1cccc(Cl)c1 (stereo unspecified)	inconclusive: 70.8 µM [inhibitor, single point]	–
O=S(=O)(NCc1nc2ccccc2s1)c1cccs1	inconclusive: 44.7 µM [inhibitor, partial curve, poor fit]	–
CCOC(=O)N1CCN(C(=O)c2cnc3n(c2=O)CCS3)CC1	inconclusive: 112 µM [inhibitor, partial curve, poor fit]	–
O=S(=O)(/N=C(/Nc1cccc2ccccc12)c1ccc(F)cc1)c1ccccc1	inconclusive: 5.01 µM [inhibitor, full curve, poor fit]	–
CCOC(=O)C1CCCCN1Cc1cc(Cl)ccc1O (stereo unspecified)	inconclusive: 3.16 µM [inhibitor, full curve]	–
O=c1[nH]n2c(=O)c3c([nH]c2c1N=Nc1cccc(C(F)(F)F)c1)CCCC3	inconclusive: 44.7 µM [inhibitor, single point]	–
Cc1nn(C)c(C)c1CCC(=O)NC1CCc2n[nH]c(=O)n2CC1 (stereo unspecified)	–	inactive: 16.1%
Cc1oc(-c2cccc(Cl)c2)nc1CNC(=O)Nc1ccccc1Cl	inconclusive: 4.47 µM [inhibitor, full curve, poor fit]	–
CN1C(=O)[C@H]2[C@@H](c3ccc(C(F)(F)F)cc3)N[C@]3(CCCN(Cc4ccc(Br)cc4)C3=O)[C@H]2C1=O	inconclusive: 50.1 µM [inhibitor, partial curve, poor fit]	–
O=C1C=CC(=O)C2=C1C1c3ccccc3C2c2ccccc21	inconclusive: 1 µM [inhibitor, full curve, poor fit]	–
CCO[C@@H]1OC(C(=O)NCc2ccccc2)=C[C@H](c2ccc(Br)cc2)[C@H]1CCCO	inconclusive: 44.7 µM [inhibitor, partial curve, poor fit]	–
O=C(Cn1nc(CNc2ccc(Cl)cc2)[n+]2c1CCCCC2)c1ccccc1	inconclusive: 44.7 µM [inhibitor, partial curve, poor fit]	–
O=C(Nc1cccc(C(F)(F)F)c1)c1cccc(NC(=O)c2cnc3ccccc3n2)c1	–	inactive: -2.04%
O=C(c1cc2c(s1)-c1ccc(Cl)cc1SC2)N1CCC(Cc2ccccc2)CC1	inconclusive: 5.01 µM [inhibitor, full curve, poor fit]	–
CC(=O)Nc1c(C)nn(-c2ccccc2)c1N1CCC(C(=O)Nc2ccccc2C(F)(F)F)CC1	inconclusive: 158 µM [inhibitor, single point]	–
COc1cc(/C=N/NC(=O)c2cccc3ccccc23)cc(OC)c1OC	–	inactive: 0.375%
CC(=O)Oc1ccc2nc(-c3ccco3)oc(=O)c2c1	inconclusive: 39.8 µM [inhibitor, partial curve, poor fit]	–
CCOC(=O)C1CCCN(C(=S)Nc2ccc(Nc3ccccc3)cc2)C1 (stereo unspecified)	inconclusive: 44.7 µM [inhibitor, partial curve, poor fit]	–
O=C(COc1cc(Cl)ccc1Cl)N1CC=C(c2ccccc2)CC1	inconclusive: 5.01 µM [inhibitor, partial curve, poor fit]	–
CCN(CC)S(=O)(=O)c1ccc(NC(=O)COC(=O)CNC(=O)C2CCCCC2)cc1	inconclusive: 56.2 µM [inhibitor, single point]	–
